{"source": "PubChem BioAssay AID743454 (Peter MacCallum Cancer Centre, 2014)", "assay": "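Genes whose loss kills vorinostat-resistant colon cancer cells under vorinostat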 (primary screen)", "cell system": "human HCT116-VR colon cancer cells, selected for vorinostat resistance", "reagents": "siRNA pool against human genes, 40 nM siRNA pool", "timing": "vorinostat for 24 h, read-out about 72 h after transfection", "conditions": "vorinostat at 2.5 µM final", "detection": "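Two measures, CellTiter-Fluor viability and luminescent caspase 3/7 activity, each as fold change against same-plate mock wells, mean of duplicates, then screen-wide robust z-score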", "direction": "viability robust z-score: higher = more viable cells than screen typical; caspase robust z-score: higher = more caspase 3/7 activity than screen typical", "call rule": "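Hits are knock-downs in viability class RV1/RV2 or caspase class CA1/CA2, excluding ones that killed cells in the no-drug cell-count arm; hits then retested with single siRNAs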", "note": "The deposit covers about 18,000 reagents; this is a random part of them. Over the whole deposit, 450 (2.5%) are marked active. 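Single biological run; no consistent viability z cut-off exists, so the class columns, not z-scores, define the calls.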 No sequences are given here."}
{"gene knocked down": "MZT2B", "viability hit class": "no change", "caspase hit class": "no change", "viability robust z-score": 0.14, "caspase robust z-score": 0.48, "outcome": "inactive"}
{"gene knocked down": "ANKRD42", "viability hit class": "no change", "caspase hit class": "no change", "viability robust z-score": 0.28, "caspase robust z-score": 0.71, "outcome": "inactive"}
{"gene knocked down": "CDK5R1", "viability hit class": "no change", "caspase hit class": "no change", "viability robust z-score": -1.52, "caspase robust z-score": 3.94, "outcome": "inactive"}
{"gene knocked down": "MCUR1", "viability hit class": "no change", "caspase hit class": "no change", "viability robust z-score": 0.93, "caspase robust z-score": 0.08, "outcome": "inactive"}
{"gene knocked down": "BAG6", "viability hit class": "no change", "caspase hit class": "no change", "viability robust z-score": -0.62, "caspase robust z-score": 0.1, "outcome": "inactive"}
{"gene knocked down": "GYS2", "viability hit class": "no change", "caspase hit class": "no change", "viability robust z-score": -0.18, "caspase robust z-score": -0.2, "outcome": "inactive"}
{"gene knocked down": "STEAP3", "viability hit class": "no change", "caspase hit class": "no change", "viability robust z-score": -0.14, "caspase robust z-score": -0.66, "outcome": "inactive"}
{"gene knocked down": "ASH1L", "viability hit class": "no change", "caspase hit class": "no change", "viability robust z-score": -0.35, "caspase robust z-score": 0.6, "outcome": "inactive"}
{"gene knocked down": "RASSF4", "viability hit class": "no change", "caspase hit class": "no change", "viability robust z-score": -1.8, "caspase robust z-score": 2.86, "outcome": "inactive"}
{"gene knocked down": "FBXO2", "viability hit class": "no change", "caspase hit class": "no change", "viability robust z-score": -1.23, "caspase robust z-score": 0.6, "outcome": "inactive"}
{"gene knocked down": "TMEM222", "viability hit class": "no change", "caspase hit class": "no change", "viability robust z-score": 0.5, "caspase robust z-score": -0.29, "outcome": "inactive"}
{"gene knocked down": "STPG2", "viability hit class": "no change", "caspase hit class": "no change", "viability robust z-score": 0.67, "caspase robust z-score": -0.8, "outcome": "inactive"}
{"gene knocked down": "SPATA45", "viability hit class": "no change", "caspase hit class": "no change", "viability robust z-score": -0.34, "caspase robust z-score": -0.74, "outcome": "inactive"}
{"gene knocked down": "DCTN4", "viability hit class": "no change", "caspase hit class": "no change", "viability robust z-score": -0.5, "caspase robust z-score": 0.48, "outcome": "inactive"}

2 of these entries, set out differently.
{"gene knocked down":"STPG2","viability hit class":"no change","caspase hit class":"no change","viability robust z-score":0.67,"caspase robust z-score":-0.8,"outcome":"inactive"}
{"gene knocked down":"SPATA45","viability hit class":"no change","caspase hit class":"no change","viability robust z-score":-0.34,"caspase robust z-score":-0.74,"outcome":"inactive"}
